Results published in PubChem BioAssay AID1487 (National Center for Advancing Translational Sciences (NCATS), 2009).
The other results are listed elsewhere or left out. The main result of the screen is listed elsewhere. These columns were measured beside it and carry no call. Most of these compounds were active or inconclusive in the main read-out, so they are no random draw. Potencies come from curve fits of mixed quality, noted in brackets.

Assay: qHTS Assay for Modulators of Lamin A Splicing
Conditions: HeLa LMNA splicing GFP/RFP minigene ratio, 48 h
Method in brief: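 Read-out is the ratio of GFP to DsRed2 object intensity, acquired by 488 nm laser-scanning cytometry on HeLa lamin A-EGFP minigene reporter cells. Compound incubation 48 hrs at 37 °C in Opti-MEM with 2% FBS; DMSO 0.5% final.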

[1] = measured here: GFP splicing reporter channel
[2] = measured here: RFP viability control channel

## COC(=O)c1cccnc1-n1c(=O)c2cccnc2n(Cc2cccc(C(F)(F)F)c2)c1=O
[1]
  AC50: 8.91 µM [falling, single point]

## COc1ccc(Cn2c(CO)cnc2SCC(=O)Nc2ccc3c(c2)OCCO3)cc1
[1]
  AC50: 0.891 µM [rising, full curve, poor fit]

## O=C(Nc1nccs1)c1ccc(S(=O)(=O)NCc2cccs2)cc1
[1]
  AC50: 7.94 µM [rising, single point]
[2]
  AC50: 15.8 µM [rising, single point]

## Cc1ccc(Cl)cc1N1CCN(C(=O)Cc2cn(C)c3ccccc23)CC1
[2]
  AC50: 35.5 µM [falling, single point]

## O=C(CCCCn1c(=O)[nH]c2ccccc2c1=O)N1CCN(c2cccc(C(F)(F)F)c2)CC1
[1]
  AC50: 7.08 µM [rising, partial curve]
[2]
  AC50: 15.8 µM [rising, partial curve]

## COc1ccc2c(c1)C(C)=CC(C)(C)N2C(=O)CSc1nnc(-c2ccc(C)cc2)o1
[2]
  AC50: 35.5 µM [rising, single point]

## CN(C)CCOc1nc(-c2ccccc2)nc2c1oc1ccccc12
[2]
  AC50: 14.1 µM [rising, partial curve]

## CCOC(=O)N1CCN(C(=O)CSc2nc(-c3cccc(C)c3)ns2)CC1
[1]
  AC50: 15.8 µM [rising, single point]
[2]
  AC50: 15.8 µM [rising, single point]

## Cc1cccc(-n2c(CCc3ccccc3)nnc2SCC(=O)c2ccccc2)c1
[2]
  AC50: 35.5 µM [rising, single point]

## O=C(Nc1ccc2nn(-c3ccc(F)cc3)nc2c1)c1cccnc1
[1]
  AC50: 4.47 µM [falling, full curve, poor fit]
[2]
  AC50: 6.31 µM [falling, full curve, poor fit]

## COc1cc2c(cc1NC(=O)COC(=O)Cn1cnc3ccccc31)oc1ccccc12
[2]
  AC50: 5.62 µM [rising, single point]

## N#CC1=C(N)Oc2cc(O)c(C=Nc3ccccc3)cc2C1c1ccccc1 (centres undefined)
[1]
  AC50: 35.5 µM [falling, single point]
[2]
  AC50: 2 µM [rising, partial curve]

## Cc1ccc(NC(=O)c2cccc(S(=O)(=O)N(C)c3ccccc3)c2)cc1S(=O)(=O)N1CCOCC1
[1]
  AC50: 11.2 µM [rising, partial curve, poor fit]
[2]
  AC50: 20 µM [rising, partial curve]

## CC(Oc1ccc(Cl)cc1Cl)C(=O)Nc1cccnc1 (centres undefined)
[2]
  AC50: 8.91 µM [rising, partial curve]

## C=CCN1C=CC(=C/C=C(/C#N)C(=O)OCC)C=C1
[1]
  AC50: 25.1 µM [falling, single point]
[2]
  AC50: 14.1 µM [falling, single point]

## O=C(NCCCn1ccnc1)c1cc(-c2ccc(Br)cc2)on1
[2]
  AC50: 0.398 µM [rising, full curve, poor fit]

## NS(=O)(=O)c1cccc(NC(=S)NC(=O)C23CC4CC(CC(C4)C2)C3)c1
[2]
  AC50: 14.1 µM [rising, partial curve]

## COc1ccc([N+](=O)[O-])cc1NC(=O)CS(=O)(=O)c1ccc(C)cc1
[1]
  AC50: 6.31 µM [rising, partial curve, poor fit]

## Cc1ccc(/C=C2/NC(=O)N(Cc3ccccc3)C2=O)s1
[1]
  AC50: 6.31 µM [rising, partial curve, poor fit]

## Clc1cccc(N2CCN(c3nnnn3-c3ccccc3)CC2)c1
[1]
  AC50: 0.501 µM [falling, full curve, poor fit]

## CCn1c(=O)cc(SCC(=O)N2CCN(Cc3ccc4c(c3)OCO4)CC2)c2ccccc21
[1]
  AC50: 11.2 µM [rising, single point]
[2]
  AC50: 25.1 µM [rising, single point]

## O=C(Cc1ccc(-c2ccccc2)cc1)NCc1ccccc1
[2]
  AC50: 0.1 µM [rising, full curve]

## c1ccc(-c2ncnc3cc4n(c23)CCC4)cc1
[2]
  AC50: 14.1 µM [rising, single point]

## CC(C)(C)Sc1ccc2nc3c(n2c1)CCCC3
[1]
  AC50: 15.8 µM [rising, single point]
[2]
  AC50: 31.6 µM [rising, single point]

## CCCn1c(SCC(=O)NCCc2ccc(Cl)cc2Cl)n[nH]c1=O
[1]
  AC50: 15.8 µM [rising, single point]

## COc1cc(NC(=O)CCc2c(C)n(C)c3cc(-c4ccccc4C)nn3c2=O)cc(OC)c1OC
[1]
  AC50: 2.24 µM [falling, partial curve]
[2]
  AC50: 5.62 µM [falling, single point]

## COc1cccc(-c2nn(-c3ccccc3)cc2/C=C(\C#N)C(=O)NCCCn2ccnc2)c1
[2]
  AC50: 10 µM [rising, partial curve]

## CC(C)c1ccc(C2=CC(c3cccc(Cl)c3)n3ncnc3N2)cc1 (centres undefined)
[2]
  AC50: 17.8 µM [rising, partial curve, poor fit]

## O=S(=O)(NCC(Nc1ccccc1)c1ccccc1)c1ccc(Cl)cc1 (centres undefined)
[1]
  AC50: 12.6 µM [falling, partial curve, poor fit]
[2]
  AC50: 17.8 µM [falling, partial curve, poor fit]

## CCCCCCCCCn1c2c(c(=N)c3c1CCC3)CCCC2
[1]
  AC50: 15.8 µM [falling, single point]
[2]
  AC50: 35.5 µM [falling, single point]

## Cc1ccc(C(NC(N)=O)c2ccccc2)cc1 (centres undefined)
[2]
  AC50: 35.5 µM [rising, single point]

## CC(C)CCc1noc(CN2CCC(CCN3CCCC3=O)CC2)n1
[2]
  AC50: 22.4 µM [falling, partial curve, poor fit]

## CS(=O)(=O)N(CCc1ccccc1)CC(=O)N1CCN(Cc2ccccc2)CC1
[1]
  AC50: 15.8 µM [rising, single point]

## FC(F)(F)c1nnc2ccc(NCc3cccnc3)nn12
[2]
  AC50: 0.0316 µM [falling, full curve, poor fit]

## O=C(CCc1ccc(S(=O)(=O)N2CCOCC2)cc1)Nc1ccc(N2CCOCC2)cc1
[1]
  AC50: 35.5 µM [rising, single point]

## CCCC(C)C(=O)Nc1nc(C)c(-c2csc(Nc3ccccc3OC)n2)s1 (centres undefined)
[1]
  AC50: 8.91 µM [rising, partial curve, poor fit]
[2]
  AC50: 12.6 µM [rising, partial curve]
